Data on 1 compound can be found in US11278549B2, “Method of treating obesity” (McMaster University, priority 2013, dated 2022).

The data set has as its system HFD-fed C57Bl6 mice. The data set is described as follows: Daily LP533401 treatment of HFD-fed C57Bl6 mice (prevention of obesity). In kind it is in vivo. The settings on record: Tph1 inhibitor 25 mg/kg daily i.p., values ± SEM, n = 7-8. The text has this:
Animals. All experiments were approved by the McMaster University animal ethics committee and conducted under the Canadian guidelines for animal research. Tph1^−/− mice on C57BL/6 background were originally produced by gene mutation as described by Côté et al. (Proc Natl Acad Sci USA 100, 13525-13530 (2003)). Heterozygous (Tph1^+/−) mice were interbred to generate Tph1^−/− and Tph1^+/+ littermates. Starting at 8 weeks of age, male Tph1^−/− and Tph1^+/+ mice received either a chow (17% kcal fat; Diet 8640, Harlan Teklad, Madison, Wis.) or high-fat diet (HFD, 45% kcal fat, D12451, Research Diets; New Brunswick, N.J.) and water ad libitum for 12 weeks. […]
Metabolic monitoring was performed in a Comprehensive Lab Animal Monitoring System (CLAMS, Columbus Instruments, OH, USA) as previously described (Sachithanandan, N., et al. Hepatology 52, 1632-1642 (2010); O'Neill, H. M., et al. Proc Natl Acad Sci 108, 16092-16097 (2011)). […] For serum insulin and cytokine measurements, fasting and fed blood samples were collected by retro-orbital bleed between weeks 16-18 using a non-heparinized capillary tube and insulin, adiponectin, leptin were measured as described (Watt, M. J., et al. Nature medicine 12, 541-548 (2006)). Serum cytokines (MCP-1, TNFα, and IL-6) were measured using a multiplexed bead-based immunoassay (BD Biosciences, San Jose, Calif., USA) following the manufacturer's instructions. […]

On to `Nc1nc(OC(c2ccc(-c3cccc(F)c3)cc2)C(F)(F)F)cc(-c2ccc(C[C@H](N)C(=O)O)cc2)n1` (stereo partly drawn) [LP533401, (2S)-2-amino-3-(4-(2-amino-6-(2,2,2-trifluoro-1-(3′-fluoro-[1,1′-biphenyl]-4-yl)ethoxy)pyrimidin-4-yl)phenyl)propanoic acid], for which the “Tissue weight, Heart” value is recorded as 153 ± 10.6 mg and the “Tissue weight, Spleen” value was determined as 147 ± 23.3 mg.
